# Results: paper PMC9166773, “Latrophilin-2 is a novel receptor of LRG1 that rescues vascular and neurological abnormalities and restores diabetic erectile function” (Experimental & Molecular Medicine, 2022)
# The chains behind the UniProt entries cited, without tags or fusion partners.
# UniProt P17931: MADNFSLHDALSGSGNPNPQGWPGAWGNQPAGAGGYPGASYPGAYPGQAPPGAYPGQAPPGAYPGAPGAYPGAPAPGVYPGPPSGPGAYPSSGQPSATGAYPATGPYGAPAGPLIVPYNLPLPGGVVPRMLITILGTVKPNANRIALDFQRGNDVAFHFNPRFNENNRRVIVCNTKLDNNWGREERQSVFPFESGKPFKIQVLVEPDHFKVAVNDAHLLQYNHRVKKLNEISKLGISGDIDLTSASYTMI
# UniProt Q16718: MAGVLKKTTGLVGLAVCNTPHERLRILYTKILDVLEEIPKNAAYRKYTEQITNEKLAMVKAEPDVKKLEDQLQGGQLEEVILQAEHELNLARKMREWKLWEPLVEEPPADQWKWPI
# Results are given in words; binding and its absence hold for the method and conditions named. For part of these data: In cells and extracts the contact can be indirect. Some entries that bind do so weakly or less than the wild type. Tags and fused reporters may be left off the sequences shown.
# T1: Leucine-rich alpha-2-glycoprotein 1 (LRG1), recombinant tag-free human LRG1 (human) (UniProt P02750)
# T1 sequence: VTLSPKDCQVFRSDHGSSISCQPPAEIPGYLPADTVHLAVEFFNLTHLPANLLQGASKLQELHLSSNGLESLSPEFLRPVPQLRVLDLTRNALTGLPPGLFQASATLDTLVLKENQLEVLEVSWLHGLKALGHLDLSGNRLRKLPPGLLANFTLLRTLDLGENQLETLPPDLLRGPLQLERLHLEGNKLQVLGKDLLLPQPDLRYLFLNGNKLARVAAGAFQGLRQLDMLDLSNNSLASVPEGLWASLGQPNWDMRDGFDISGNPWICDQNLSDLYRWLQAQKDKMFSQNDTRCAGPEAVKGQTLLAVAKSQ
# T2: Latrophilin-2 (LPHN2), endogenous (human (endogenous in HEK293T and HUVEC)) (UniProt O95490)
# T2 sequence: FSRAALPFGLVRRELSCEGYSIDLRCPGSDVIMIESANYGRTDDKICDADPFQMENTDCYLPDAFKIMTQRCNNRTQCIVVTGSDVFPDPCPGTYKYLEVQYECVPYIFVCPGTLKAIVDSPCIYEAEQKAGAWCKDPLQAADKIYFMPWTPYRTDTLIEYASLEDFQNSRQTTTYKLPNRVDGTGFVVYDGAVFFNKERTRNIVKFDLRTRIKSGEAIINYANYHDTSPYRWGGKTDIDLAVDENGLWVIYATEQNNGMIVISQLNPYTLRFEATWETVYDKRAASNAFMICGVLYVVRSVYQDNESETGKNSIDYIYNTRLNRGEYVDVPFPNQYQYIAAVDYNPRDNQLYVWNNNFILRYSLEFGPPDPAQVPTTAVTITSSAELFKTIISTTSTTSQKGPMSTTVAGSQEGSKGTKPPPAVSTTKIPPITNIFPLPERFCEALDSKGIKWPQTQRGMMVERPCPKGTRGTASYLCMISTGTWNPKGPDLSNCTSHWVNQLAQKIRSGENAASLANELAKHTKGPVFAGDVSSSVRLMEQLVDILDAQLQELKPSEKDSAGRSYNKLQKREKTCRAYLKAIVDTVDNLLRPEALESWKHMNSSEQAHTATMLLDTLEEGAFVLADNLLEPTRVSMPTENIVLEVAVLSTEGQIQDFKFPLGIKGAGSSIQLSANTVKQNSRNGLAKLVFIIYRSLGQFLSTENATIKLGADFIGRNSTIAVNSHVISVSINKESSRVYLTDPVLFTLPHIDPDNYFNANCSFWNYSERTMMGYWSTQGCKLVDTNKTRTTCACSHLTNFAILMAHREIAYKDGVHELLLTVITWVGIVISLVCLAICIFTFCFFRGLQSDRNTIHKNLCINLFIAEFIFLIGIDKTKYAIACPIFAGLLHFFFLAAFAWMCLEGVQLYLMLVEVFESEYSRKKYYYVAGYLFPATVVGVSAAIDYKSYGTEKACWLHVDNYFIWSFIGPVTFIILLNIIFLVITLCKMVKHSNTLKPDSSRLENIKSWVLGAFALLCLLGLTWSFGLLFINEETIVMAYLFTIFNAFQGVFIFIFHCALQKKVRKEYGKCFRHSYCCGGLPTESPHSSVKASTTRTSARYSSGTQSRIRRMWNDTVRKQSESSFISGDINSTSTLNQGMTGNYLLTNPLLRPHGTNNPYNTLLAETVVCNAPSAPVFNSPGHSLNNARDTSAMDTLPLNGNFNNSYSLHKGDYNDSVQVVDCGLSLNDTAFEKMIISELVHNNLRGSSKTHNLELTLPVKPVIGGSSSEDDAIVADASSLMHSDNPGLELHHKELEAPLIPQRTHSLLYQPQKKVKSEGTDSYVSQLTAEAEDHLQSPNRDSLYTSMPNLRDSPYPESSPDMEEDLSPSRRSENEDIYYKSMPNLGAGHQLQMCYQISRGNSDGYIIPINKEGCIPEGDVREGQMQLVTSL
# T3: LPHN2 Lec-Olf-GAIN/GPS domains (F26-R796), recombinant ecto-full LPHN2, O95490
# T3 chain: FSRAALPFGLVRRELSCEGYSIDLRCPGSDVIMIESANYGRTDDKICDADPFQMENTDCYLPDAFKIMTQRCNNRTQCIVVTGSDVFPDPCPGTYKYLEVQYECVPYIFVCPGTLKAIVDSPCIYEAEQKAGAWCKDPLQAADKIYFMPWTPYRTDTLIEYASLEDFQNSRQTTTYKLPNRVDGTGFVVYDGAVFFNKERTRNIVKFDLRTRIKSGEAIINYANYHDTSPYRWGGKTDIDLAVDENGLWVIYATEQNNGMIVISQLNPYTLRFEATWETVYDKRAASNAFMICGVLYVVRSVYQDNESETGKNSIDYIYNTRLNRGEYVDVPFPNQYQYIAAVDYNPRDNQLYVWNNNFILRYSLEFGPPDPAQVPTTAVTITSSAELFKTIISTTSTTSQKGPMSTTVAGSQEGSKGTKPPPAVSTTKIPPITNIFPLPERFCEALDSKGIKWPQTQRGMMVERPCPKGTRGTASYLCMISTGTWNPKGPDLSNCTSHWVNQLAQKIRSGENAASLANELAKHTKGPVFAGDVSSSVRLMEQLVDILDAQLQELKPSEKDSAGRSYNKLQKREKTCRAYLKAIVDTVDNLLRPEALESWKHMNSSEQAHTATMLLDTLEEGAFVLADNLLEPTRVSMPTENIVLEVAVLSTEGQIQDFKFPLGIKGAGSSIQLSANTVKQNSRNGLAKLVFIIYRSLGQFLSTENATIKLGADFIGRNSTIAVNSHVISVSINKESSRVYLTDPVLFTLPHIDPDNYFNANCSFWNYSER
# Experiments:
# [1] = target: T1, Leucine-rich alpha-2-glycoprotein 1 (LRG1), recombinant tag-free human LRG1 (human); experiment: TriCEPS-based ligand-receptor capture (LRC-TriCEPS) with LC-MS/MS; TriCEPS-coupled LRG1 (300 ug) incubated 90 min at 4 °C with live HEK293T cells mildly oxidised with 1.5 mM NaIO4, PBS with 1% FBS pH 6.5; captured glycoproteins affinity purified and identified by LC-MS/MS; transferrin as control ligand; hits: enrichment factor > 4 and FDR-adjusted P < 0.05; only the target purified
# [2] = target: T2, Latrophilin-2 (LPHN2), endogenous (human (endogenous in HEK293T and HUVEC)); experiment: cell surface binding assay (confocal fluorescence microscopy); HEK293T cells and HUVECs (shCon or shLPHN2 lentivirus) incubated with LRG1-YFP or YFP (10 ug/ml) for 1 h at 37 °C, washed, fixed, imaged; only the binder purified
# [3] = target: T2, Latrophilin-2 (LPHN2), endogenous (human (endogenous in HEK293T and HUVEC)); experiment: co-IP; HUVECs treated with or without LRG1 (1 ug/ml) for 10 min, lysed in RIPA buffer; IP with anti-LPHN2 antibody, immunoblot for LRG1 and LPHN2; only the binder purified
# [4] = target: T3, LPHN2 Lec-Olf-GAIN/GPS domains …; experiment: solid-phase binding assay; LRG1 and recombinant extracellular domains of LPHN2 (and Lec/Olf of LPHN1, LPHN3); who was immobilised and conditions not told in the text shown; both purified; settings: remark: other sources report otherwise
Molecule,binding [1],also measured
galectin-3 (LEG3) (from UniProt P17931 1-250),binds,–
NADH dehydrogenase 1 alpha subcomplex subunit 5 (NDUA5) (from UniProt Q16718 1-116),binds,–
"Latrophilin-2 (LPHN2), endogenous (receptor, UniProt O95490 26-1459) FSRAALPFGLVRRELSCEGYSIDLRCPGSDVIMIESANYGRTDDKICDADPFQMENTDCYLPDAFKIMTQRCNNRTQCIVVTGSDVFPDPCPGTYKYLEVQYECVPYIFVCPGTLKAIVDSPCIYEAEQKAGAWCKDPLQAADKIYFMPWTPYRTDTLIEYASLEDFQNSRQTTTYKLPNRVDGTGFVVYDGAVFFNKERTRNIVKFDLRTRIKSGEAIINYANYHDTSPYRWGGKTDIDLAVDENGLWVIYATEQNNGMIVISQLNPYTLRFEATWETVYDKRAASNAFMICGVLYVVRSVYQDNESETGKNSIDYIYNTRLNRGEYVDVPFPNQYQYIAAVDYNPRDNQLYVWNNNFILRYSLEFGPPDPAQVPTTAVTITSSAELFKTIISTTSTTSQKGPMSTTVAGSQEGSKGTKPPPAVSTTKIPPITNIFPLPERFCEALDSKGIKWPQTQRGMMVERPCPKGTRGTASYLCMISTGTWNPKGPDLSNCTSHWVNQLAQKIRSGENAASLANELAKHTKGPVFAGDVSSSVRLMEQLVDILDAQLQELKPSEKDSAGRSYNKLQKREKTCRAYLKAIVDTVDNLLRPEALESWKHMNSSEQAHTATMLLDTLEEGAFVLADNLLEPTRVSMPTENIVLEVAVLSTEGQIQDFKFPLGIKGAGSSIQLSANTVKQNSRNGLAKLVFIIYRSLGQFLSTENATIKLGADFIGRNSTIAVNSHVISVSINKESSRVYLTDPVLFTLPHIDPDNYFNANCSFWNYSERTMMGYWSTQGCKLVDTNKTRTTCACSHLTNFAILMAHREIAYKDGVHELLLTVITWVGIVISLVCLAICIFTFCFFRGLQSDRNTIHKNLCINLFIAEFIFLIGIDKTKYAIACPIFAGLLHFFFLAAFAWMCLEGVQLYLMLVEVFESEYSRKKYYYVAGYLFPATVVGVSAAIDYKSYGTEKACWLHVDNYFIWSFIGPVTFIILLNIIFLVITLCKMVKHSNTLKPDSSRLENIKSWVLGAFALLCLLGLTWSFGLLFINEETIVMAYLFTIFNAFQGVFIFIFHCALQKKVRKEYGKCFRHSYCCGGLPTESPHSSVKASTTRTSARYSSGTQSRIRRMWNDTVRKQSESSFISGDINSTSTLNQGMTGNYLLTNPLLRPHGTNNPYNTLLAETVVCNAPSAPVFNSPGHSLNNARDTSAMDTLPLNGNFNNSYSLHKGDYNDSVQVVDCGLSLNDTAFEKMIISELVHNNLRGSSKTHNLELTLPVKPVIGGSSSEDDAIVADASSLMHSDNPGLELHHKELEAPLIPQRTHSLLYQPQKKVKSEGTDSYVSQLTAEAEDHLQSPNRDSLYTSMPNLRDSPYPESSPDMEEDLSPSRRSENEDIYYKSMPNLGAGHQLQMCYQISRGNSDGYIIPINKEGCIPEGDVREGQMQLVTSL",binds,–
"YFP-His-tagged human LRG1 (LRG1-YFP) (ligand, UniProt P02750 36-347) VTLSPKDCQVFRSDHGSSISCQPPAEIPGYLPADTVHLAVEFFNLTHLPANLLQGASKLQELHLSSNGLESLSPEFLRPVPQLRVLDLTRNALTGLPPGLFQASATLDTLVLKENQLEVLEVSWLHGLKALGHLDLSGNRLRKLPPGLLANFTLLRTLDLGENQLETLPPDLLRGPLQLERLHLEGNKLQVLGKDLLLPQPDLRYLFLNGNKLARVAAGAFQGLRQLDMLDLSNNSLASVPEGLWASLGQPNWDMRDGFDISGNPWICDQNLSDLYRWLQAQKDKMFSQNDTRCAGPEAVKGQTLLAVAKSQ",–,binding [2]: binds
"Leucine-rich alpha-2-glycoprotein 1 (LRG1), recombinant tag-free human LRG1 (ligand, UniProt P02750 36-347, looked up, human LRG1, residues V36-Q347; In the TriCEPS capture LRG1 was coupled to the TriCEPS reagent; Residues of the thrombin site may remain after cleavage; also called recombinant LRG1; soluble LRG1; not shown: Fc (human IgG), C-terminal, cleaved) VTLSPKDCQVFRSDHGSSISCQPPAEIPGYLPADTVHLAVEFFNLTHLPANLLQGASKLQELHLSSNGLESLSPEFLRPVPQLRVLDLTRNALTGLPPGLFQASATLDTLVLKENQLEVLEVSWLHGLKALGHLDLSGNRLRKLPPGLLANFTLLRTLDLGENQLETLPPDLLRGPLQLERLHLEGNKLQVLGKDLLLPQPDLRYLFLNGNKLARVAAGAFQGLRQLDMLDLSNNSLASVPEGLWASLGQPNWDMRDGFDISGNPWICDQNLSDLYRWLQAQKDKMFSQNDTRCAGPEAVKGQTLLAVAKSQ",–,binding [3]: binds
"Leucine-rich alpha-2-glycoprotein 1 (LRG1), recombinant tag-free human LRG1, P02750 36-347 (ligand) VTLSPKDCQVFRSDHGSSISCQPPAEIPGYLPADTVHLAVEFFNLTHLPANLLQGASKLQELHLSSNGLESLSPEFLRPVPQLRVLDLTRNALTGLPPGLFQASATLDTLVLKENQLEVLEVSWLHGLKALGHLDLSGNRLRKLPPGLLANFTLLRTLDLGENQLETLPPDLLRGPLQLERLHLEGNKLQVLGKDLLLPQPDLRYLFLNGNKLARVAAGAFQGLRQLDMLDLSNNSLASVPEGLWASLGQPNWDMRDGFDISGNPWICDQNLSDLYRWLQAQKDKMFSQNDTRCAGPEAVKGQTLLAVAKSQ",–,binding [4]: no binding
